Data published in paper PMC3724668.
These are yes or no findings as the source states them, for the method shown.

Protein sequences, listed by entry. Tags and fused reporters are not part of them.
UniProt P18238: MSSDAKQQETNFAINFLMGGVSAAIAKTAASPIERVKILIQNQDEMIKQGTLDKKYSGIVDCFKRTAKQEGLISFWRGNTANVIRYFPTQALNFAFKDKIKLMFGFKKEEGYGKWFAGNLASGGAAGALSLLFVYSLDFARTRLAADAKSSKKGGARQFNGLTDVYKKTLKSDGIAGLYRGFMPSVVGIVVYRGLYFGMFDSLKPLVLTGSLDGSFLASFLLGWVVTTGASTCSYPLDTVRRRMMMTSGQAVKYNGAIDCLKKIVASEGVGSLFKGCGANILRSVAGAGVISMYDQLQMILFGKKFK

Assays:
[1] = molecular target: yeast mitochondrial ADP/ATP carrier AAC3 (in solubilised mitochondrial membranes) (yeast (Saccharomyces cerevisiae)) (UniProt P18238); assay: native gel or EMSA; blue native PAGE, 6-18% polyacrylamide gels, CATR-treated yeast mitochondrial membranes (20 ug protein) solubilised in 1% digitonin, Western detection; calibrated with the covalently linked dimer diAAC3
[2] = molecular target: yeast mitochondrial ADP/ATP carrier AAC3 (in solubilised mitochondrial membranes) (yeast (Saccharomyces cerevisiae)) (UniProt P18238); assay: native gel or EMSA; blue native PAGE, 6-18% polyacrylamide gels, mitochondrial membranes (20 ug protein, 10-fold lower load) solubilised in 1% alkyl maltoside (12M; 10-13M for AAC3), AAC samples CATR-treated, Western detection; calibrated with the covalently linked dimer diAAC3
[3] = molecular target: purified yeast AAC3 (yeast (Saccharomyces cerevisiae)) (UniProt P18238); assay: SEC; Superdex 200 XK16/60, 10 mM Tris pH 7.4, 150 mM NaCl, 0-0.4% 12M with or without 0.02% Coomassie Blue G-250; 417 ug purified AAC3 loaded; both purified
[4] = molecular target: purified yeast AAC3 (yeast (Saccharomyces cerevisiae)) (UniProt P18238); assay: native gel or EMSA; blue native PAGE, 5-13% polyacrylamide gels, purified AAC3 (2-4 ug per lane) in alkyl maltoside detergents (10-13M), Western detection; both purified
[5] = molecular target: native uncoupling protein-1 (UCP1) from lamb brown adipose tissue mitochondria (sheep (endogenous in lamb brown adipose tissue)) (UniProt W5PSH7); assay: native gel or EMSA; blue native PAGE, 6-18% polyacrylamide gels, mitochondrial membranes (20 ug protein, 10-fold lower load) solubilised in 1% alkyl maltoside (12M; 10-13M for AAC3), AAC samples CATR-treated, Western detection; calibrated with the covalently linked dimer diAAC3

In the case of “yeast mitochondrial ADP/ATP carrier AAC3 (in solubilised mitochondrial membranes) (from UniProt P18238 1-307)”, the binding [1] is reported as “no binding” and the binding [2] is reported as “no binding”.

With “purified yeast AAC3 (from UniProt P18238 1-307)” the binding [3] was “no binding” and the binding [4] was “no binding”.

B1: native uncoupling protein-1 (UCP1) from lamb brown adipose tissue mitochondria (protein, UniProt W5PSH7 1-305)
chain: MVGHAATDVPPTMAVKIFSAGVAACVADIITFPLDTAKVRLQIQGECLTSSAFRYKGVLGTIITLAKTEGPVKLYSGLPAGLQRQISFASLRIGLYDTVQEFFTTGKEASLGSKISAGLTTGGVAVFIGQPTEVVKVRLQAQSHLHGPKPRYTGTYNAYRIIATTEGLTGLWKGTTPNLTRNVIINCTELVTYDLMKEALVKNKLLADDVPCHFVSAVVAGFCTTVLSSPVDVVKTRFVNSSPGQYTSVPNCAMMMLTREGPSAFFKGFVPSFLRLGSWNIIMFVCFEQLKRELMKSRQAMDCAT
In the case of B1, the binding [5] is reported as “no binding”.
